# Source: PubChem BioAssay AID445 (National Center for Advancing Translational Sciences (NCATS), 2006)
# This is one part of the list. Further columns of the screen follow, without active or inactive calls. Compounds called inactive in the main read-out are mostly missing here. Potencies come from curve fits of mixed quality, noted in brackets.
# Assay: IkB Signaling
# Conditions: ABC-DLBCL IkBa-CBG/CBR dual luciferase ratio (green luciferase fused to IkBa over red control in OCI-Ly3 lymphoma cells), 4 h
# In short: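 In this assay, an IκBα–CBG68 fusion accumulates when IKK-driven degradation is blocked; native CBR normalizes for cell number. OCI-Ly3 cells were treated 4 h with compound and doxycycline, then green and red light read after Chroma-Glo addition.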
# [1] = measured here: control luc red channel unless noted
# [2] = measured here: IkB-luc green channel
# [3] = measured here: control luc red channel
compound,measurement,setting,value
O=C(Nc1ccc(Cl)cc1)c1ccc2c(c1)N(Cc1ccccc1)C(=O)c1ccccc1S2(=O)=O,AC50,[1],"10 µM [falling, partial curve]"
Cc1cccc(NC(=O)c2sc3cccc(Cl)c3c2Cl)c1,AC50,[1],"25.1 µM [falling, single point]"
CNC(=O)c1c(NC(=O)c2cc(=O)c3ccccc3o2)sc2c1CCC2,AC50,[1],"0.398 µM [falling, full curve]"
CCOC(=O)c1nnn(-c2nonc2N)c1-c1cccc2ccccc12,AC50,[1],"25.1 µM [falling, partial curve]"
CCCCNC(=O)CSc1c2c(nc3ccc(Cl)cc13)CCCC2,AC50,[1],"12.6 µM [falling, partial curve]"
COC(=O)C1=C(C)N(c2ccc(F)cc2)C(=O)C1,AC50,[1],"12.6 µM [falling, partial curve]"
Clc1ccc(-c2nnn(Cc3nc4ccccc4s3)n2)cc1,AC50,[1],"39.8 µM [falling, single point]"
COc1cccc(-c2nc(S(=O)(=O)c3ccccc3)c(NCc3ccccc3)o2)c1,AC50,[1],"7.94 µM [falling, full curve]"
COc1cccc(-c2cc(C(F)(F)F)nc(NCc3ccc(F)cc3)n2)c1,AC50,[1],"12.6 µM [falling, partial curve]"
COc1ccc(C(=O)/C=C/c2cn(CC(O)CN(CC(C)C)CC(C)C)c3ccccc23)cc1OC (configuration not stated),AC50,[1],"7.94 µM [falling, partial curve]"
O=C(Nc1nc2c(s1)CCc1ccccc1-2)c1cccs1,AC50,[2],"31.6 µM [rising, single point]"
same,AC50,[3],"1 µM [falling, partial curve]"
COc1ccc(O)c(C(=O)CC(=O)c2ccc(F)cc2)c1,AC50,[1],"12.6 µM [falling, partial curve]"
CC1=C(C(=O)Nc2ccccc2)C(c2ccncc2)n2nc(SCc3ccccc3)nc2N1 (configuration not stated),AC50,[1],"2.51 µM [falling, single point]"
CC(C)c1ccc(NC(=O)CCS(=O)(=O)c2ccc(Br)s2)cc1,AC50,[1],"15.8 µM [falling, partial curve]"
COc1ccc(N(CC(=O)Nc2ccc3c(c2)OCCO3)S(=O)(=O)c2c(C)noc2C)cc1,AC50,[1],"12.6 µM [falling, partial curve]"
Cc1cccc2c1-c1sc(C(=O)NCc3ccccc3Cl)cc1CO2,AC50,[1],"15.8 µM [falling, partial curve]"
COc1cccc(NC(=O)c2cc(CN3CCOCC3)on2)c1,AC50,[1],"12.6 µM [falling, partial curve]"
CSc1cccc(NC(=O)CN(C)S(=O)(=O)c2ccc3c(c2)n(C)c(=O)c(=O)n3C)c1,AC50,[1],"20 µM [falling, single point]"
COc1ccccc1N1CCN(C(=O)CSc2nc3ccccc3c(=O)n2CC2CCCO2)CC1 (configuration not stated),AC50,[1],"12.6 µM [falling, partial curve]"
O=c1ccc2cc(S(=O)(=O)N3CCCC3)ccc2[nH]1,AC50,[1],"0.0126 µM [falling, full curve, poor fit]"
C=CCn1c(=O)[nH]c2cc(C(=O)N3CCN(c4cccc(Cl)c4)CC3)ccc2c1=O,AC50,[1],"15.8 µM [falling, partial curve]"
Cn1c(=O)cc(OCCCC(=O)Nc2ccccn2)c2ccccc21,AC50,[1],"31.6 µM [falling, partial curve]"
Fc1ccc(CNc2nc3c(-c4ccc(F)cc4)nnn3c3ccccc23)cc1,AC50,[1],"0.158 µM [falling, full curve]"
COc1cc(C(=O)NCc2ccc3c(c2)CCN3C(=O)c2ccncc2)cc(OC)c1OC,AC50,[1],"39.8 µM [falling, single point]"
Cc1ccc(NC(=O)NCCc2c(C)nn(C)c2C)c(Cl)c1,AC50,[1],"6.31 µM [rising, single point] [measured here: IkB-luc green channel]"
COCCCNC(=O)CN1C(=O)c2c(c3ccccc3n2C)C1c1ccc(OC)cc1 (configuration not stated),AC50,[1],"15.8 µM [falling, partial curve]"
CCCCSc1ncnc2c1sc1nc(N3CCOCC3)c3c(c12)CCCC3,AC50,[1],"2.51 µM [rising, partial curve]"
Cc1[nH]nc2c1C(C(C)C)C(C#N)=C(N)O2 (configuration not stated),AC50,[1],"12.6 µM [falling, partial curve]"
COc1cc(CN2CCc3nc(Nc4ccc5c(c4)OCCO5)ncc3C2)cc(OC)c1OC,AC50,[1],"25.1 µM [falling, partial curve, poor fit]"
CCC(=O)Nc1sc2c(c1C(N)=O)CCC2,AC50,[1],"39.8 µM [falling, single point]"
COc1cccc(N2C(=O)CSC23C(=O)N(CC(=O)Nc2cc(C)ccc2C)c2ccccc23)c1 (configuration not stated),AC50,[1],"15.8 µM [falling, partial curve]"
CCCCCCSC1=C(C#N)C(c2ccc(O)cc2)CC(=O)N1 (configuration not stated),AC50,[2],"25.1 µM [falling, partial curve]"
same,AC50,[3],"15.8 µM [falling, partial curve]"
Cc1c(C(=O)N2CCOCC2)[nH]c2c1C(=O)CC(c1ccc(Cl)cc1)C2 (configuration not stated),AC50,[1],"15.8 µM [falling, partial curve]"
CCOC(=O)c1cc2c(=O)n3ccccc3nc2n(Cc2ccco2)c1=NC(=O)c1cc(C)cc(C)c1,AC50,[1],"1.58 µM [falling, full curve]"
COC(=O)c1ccc(NC(=O)c2nn(C)c3c2CS(=O)(=O)c2ccccc2-3)cc1,AC50,[1],"15.8 µM [falling, partial curve]"
CCc1ccccc1NC(=O)CC(c1ccc(F)cc1)N1Cc2ccccc2C1=O (configuration not stated),AC50,[1],"31.6 µM [falling, single point]"
COc1ccc(CCNc2nc3c(c(=O)n(C)c(=O)n3C)n2Cc2ccc(F)cc2)cc1OC,AC50,[1],"20 µM [falling, partial curve]"
COc1ccc2[nH]cc(CCNC(=O)Nc3ccccc3C)c2c1,AC50,[1],"10 µM [falling, partial curve]"
Cc1ccc2sc(N3CCN(C(=O)C4COc5ccccc5O4)CC3)nc2c1C (configuration not stated),AC50,[1],"0.0126 µM [rising, full curve, poor fit]"
O=C(Nc1c(C(=O)N2CCN(c3ccc(F)cc3)CC2)oc2ccccc12)c1ccco1,AC50,[1],"25.1 µM [falling, single point]"

# 2 entries from above, tab-delimited:
compound	measurement	setting	value
COc1ccc(O)c(C(=O)CC(=O)c2ccc(F)cc2)c1	AC50	[1]	12.6 µM [falling, partial curve]
Cc1c(C(=O)N2CCOCC2)[nH]c2c1C(=O)CC(c1ccc(Cl)cc1)C2 (configuration not stated)	AC50	[1]	15.8 µM [falling, partial curve]
